Shown are results outside the selection of hits, which stands elsewhere. Calls of active or inactive are those of the source. Rule as the data show it: active = inhibition above about 37%; inactive = the rest.
System: Hepatitis C virus NS3 helicase
Experiment: HCV NS3 helicase inhibitors, primary screen, biochemical, fluorescence polarization, LOPAC1280 library (AID 687035)
Conditions: Purified HCV NS3 helicase, Cy5-dT15 ssDNA binding fluorescence polarization; hits give high values; concentration not given here

For `Oc1cc2c(c(Cl)c1O)CCNCC2c1ccccc1` (stereo unspecified), the inhibition was inactive: -4%.

Source: PubChem BioAssay
